± gives the standard deviation of the averaged measurements. This is a selection; strong and weak results do not stand in their true shares. Most values lie at the level of the controls, where differences are scatter.
Compound: Nc1ncnc2c1ncn2[C@@H]1O[C@H](COP(=O)(O)OP(=O)(O)NP(=O)(O)O)[C@@H](O)[C@H]1O [adenylyl imidodiphosphate]
Assay: NP40-soluble protein abundance relative to vehicle (solubility fold change) (ratio); higher = more soluble protein in presence of AMP-PNP
Conditions: concentration: 0.1mM
How it was run: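 Values are fold changes against the detergent-processed vehicle, based on vsn-normalised intensities. Jurkat crude lysate was treated at eight concentrations from 0.1 to 10 mM (10 min at room temperature, then 3 min at 37 °C), solubilised with 0.8% NP40 and benzonase, ultracentrifuged and analysed by TMT-labelled LC-MS/MS over three independent experiments.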

Sequences of proteins named here, by UniProt entry; tags and fusion partners are left off. A change or cut given only in a name is not applied to a line headed by its entry.
UniProt Q14934: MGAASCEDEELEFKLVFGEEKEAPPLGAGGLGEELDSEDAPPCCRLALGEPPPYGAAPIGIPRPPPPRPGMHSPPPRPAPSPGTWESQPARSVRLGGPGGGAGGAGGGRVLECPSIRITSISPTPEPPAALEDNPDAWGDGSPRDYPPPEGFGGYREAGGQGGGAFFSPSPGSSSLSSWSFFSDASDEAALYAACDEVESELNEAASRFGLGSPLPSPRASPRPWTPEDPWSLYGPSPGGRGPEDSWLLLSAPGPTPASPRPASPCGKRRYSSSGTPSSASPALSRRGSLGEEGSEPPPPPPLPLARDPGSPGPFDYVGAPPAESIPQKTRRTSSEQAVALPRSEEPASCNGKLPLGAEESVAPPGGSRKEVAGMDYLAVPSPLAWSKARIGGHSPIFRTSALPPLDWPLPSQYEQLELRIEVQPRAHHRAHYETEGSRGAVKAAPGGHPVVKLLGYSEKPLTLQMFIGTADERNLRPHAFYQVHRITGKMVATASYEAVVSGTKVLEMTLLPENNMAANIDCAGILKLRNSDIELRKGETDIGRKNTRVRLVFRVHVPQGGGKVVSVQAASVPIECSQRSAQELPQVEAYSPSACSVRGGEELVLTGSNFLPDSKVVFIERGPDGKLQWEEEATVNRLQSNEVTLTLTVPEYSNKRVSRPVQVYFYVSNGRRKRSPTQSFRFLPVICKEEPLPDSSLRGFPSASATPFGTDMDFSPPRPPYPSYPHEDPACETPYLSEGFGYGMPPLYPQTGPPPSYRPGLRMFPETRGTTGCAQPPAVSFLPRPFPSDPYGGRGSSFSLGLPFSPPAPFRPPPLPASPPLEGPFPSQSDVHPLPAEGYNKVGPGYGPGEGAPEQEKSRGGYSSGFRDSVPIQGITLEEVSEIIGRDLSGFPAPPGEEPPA
UniProt Q14498: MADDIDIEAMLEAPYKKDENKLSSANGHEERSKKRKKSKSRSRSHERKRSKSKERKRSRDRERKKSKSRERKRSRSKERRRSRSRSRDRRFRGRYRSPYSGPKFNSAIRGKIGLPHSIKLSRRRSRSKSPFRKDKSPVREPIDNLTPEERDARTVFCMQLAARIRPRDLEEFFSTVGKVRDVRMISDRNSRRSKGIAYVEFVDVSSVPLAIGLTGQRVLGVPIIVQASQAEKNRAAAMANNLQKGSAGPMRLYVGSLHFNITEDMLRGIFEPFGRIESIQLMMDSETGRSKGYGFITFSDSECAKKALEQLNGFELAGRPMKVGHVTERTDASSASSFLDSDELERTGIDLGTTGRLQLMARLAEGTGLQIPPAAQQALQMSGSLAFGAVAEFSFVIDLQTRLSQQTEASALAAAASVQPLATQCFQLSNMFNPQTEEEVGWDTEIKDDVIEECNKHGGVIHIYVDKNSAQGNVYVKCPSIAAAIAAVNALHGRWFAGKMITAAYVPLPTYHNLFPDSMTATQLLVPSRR
UniProt Q14687: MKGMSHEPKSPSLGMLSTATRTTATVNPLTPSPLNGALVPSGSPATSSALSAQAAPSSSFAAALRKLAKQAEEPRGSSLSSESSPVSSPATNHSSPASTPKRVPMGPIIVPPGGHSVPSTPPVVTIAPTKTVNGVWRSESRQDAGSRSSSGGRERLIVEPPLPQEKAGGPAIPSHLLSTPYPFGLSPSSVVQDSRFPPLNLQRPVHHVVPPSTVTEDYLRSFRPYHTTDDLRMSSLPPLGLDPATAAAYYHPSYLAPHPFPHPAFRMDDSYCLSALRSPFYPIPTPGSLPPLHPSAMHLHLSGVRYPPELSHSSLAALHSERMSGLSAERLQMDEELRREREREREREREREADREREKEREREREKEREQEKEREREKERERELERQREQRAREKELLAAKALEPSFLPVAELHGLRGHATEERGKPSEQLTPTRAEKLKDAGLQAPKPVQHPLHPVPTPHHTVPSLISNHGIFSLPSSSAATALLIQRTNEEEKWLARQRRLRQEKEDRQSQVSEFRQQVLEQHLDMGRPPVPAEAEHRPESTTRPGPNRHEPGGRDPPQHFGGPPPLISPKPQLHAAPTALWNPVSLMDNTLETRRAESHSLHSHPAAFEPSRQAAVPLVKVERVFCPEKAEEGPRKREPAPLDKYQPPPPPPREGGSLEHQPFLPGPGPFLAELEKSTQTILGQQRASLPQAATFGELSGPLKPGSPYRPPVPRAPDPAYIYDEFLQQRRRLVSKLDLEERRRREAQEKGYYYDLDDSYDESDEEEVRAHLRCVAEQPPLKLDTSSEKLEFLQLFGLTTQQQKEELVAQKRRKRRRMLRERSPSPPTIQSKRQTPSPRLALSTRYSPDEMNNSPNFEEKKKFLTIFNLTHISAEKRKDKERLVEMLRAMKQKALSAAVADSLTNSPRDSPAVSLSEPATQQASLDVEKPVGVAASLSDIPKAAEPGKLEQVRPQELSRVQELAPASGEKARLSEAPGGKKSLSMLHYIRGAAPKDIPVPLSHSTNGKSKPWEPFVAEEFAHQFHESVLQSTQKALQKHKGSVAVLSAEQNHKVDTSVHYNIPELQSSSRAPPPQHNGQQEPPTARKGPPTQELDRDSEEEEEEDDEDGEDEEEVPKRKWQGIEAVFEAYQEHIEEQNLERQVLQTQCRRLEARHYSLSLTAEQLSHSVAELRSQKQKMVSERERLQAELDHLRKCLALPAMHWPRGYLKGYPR
UniProt Q14554: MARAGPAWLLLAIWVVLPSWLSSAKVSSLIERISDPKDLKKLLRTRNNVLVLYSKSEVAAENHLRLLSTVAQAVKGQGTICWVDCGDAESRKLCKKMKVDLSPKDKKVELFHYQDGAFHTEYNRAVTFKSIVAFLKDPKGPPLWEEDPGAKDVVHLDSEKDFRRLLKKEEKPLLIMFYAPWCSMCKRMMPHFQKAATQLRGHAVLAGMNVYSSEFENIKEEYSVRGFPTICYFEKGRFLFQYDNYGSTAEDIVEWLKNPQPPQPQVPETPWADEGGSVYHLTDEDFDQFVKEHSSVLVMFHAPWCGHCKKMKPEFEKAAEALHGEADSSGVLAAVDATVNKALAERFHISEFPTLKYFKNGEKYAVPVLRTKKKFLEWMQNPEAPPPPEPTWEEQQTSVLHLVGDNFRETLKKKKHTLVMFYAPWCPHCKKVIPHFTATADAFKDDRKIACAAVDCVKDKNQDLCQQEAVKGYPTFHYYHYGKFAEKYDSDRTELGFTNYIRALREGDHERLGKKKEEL
UniProt Q14692: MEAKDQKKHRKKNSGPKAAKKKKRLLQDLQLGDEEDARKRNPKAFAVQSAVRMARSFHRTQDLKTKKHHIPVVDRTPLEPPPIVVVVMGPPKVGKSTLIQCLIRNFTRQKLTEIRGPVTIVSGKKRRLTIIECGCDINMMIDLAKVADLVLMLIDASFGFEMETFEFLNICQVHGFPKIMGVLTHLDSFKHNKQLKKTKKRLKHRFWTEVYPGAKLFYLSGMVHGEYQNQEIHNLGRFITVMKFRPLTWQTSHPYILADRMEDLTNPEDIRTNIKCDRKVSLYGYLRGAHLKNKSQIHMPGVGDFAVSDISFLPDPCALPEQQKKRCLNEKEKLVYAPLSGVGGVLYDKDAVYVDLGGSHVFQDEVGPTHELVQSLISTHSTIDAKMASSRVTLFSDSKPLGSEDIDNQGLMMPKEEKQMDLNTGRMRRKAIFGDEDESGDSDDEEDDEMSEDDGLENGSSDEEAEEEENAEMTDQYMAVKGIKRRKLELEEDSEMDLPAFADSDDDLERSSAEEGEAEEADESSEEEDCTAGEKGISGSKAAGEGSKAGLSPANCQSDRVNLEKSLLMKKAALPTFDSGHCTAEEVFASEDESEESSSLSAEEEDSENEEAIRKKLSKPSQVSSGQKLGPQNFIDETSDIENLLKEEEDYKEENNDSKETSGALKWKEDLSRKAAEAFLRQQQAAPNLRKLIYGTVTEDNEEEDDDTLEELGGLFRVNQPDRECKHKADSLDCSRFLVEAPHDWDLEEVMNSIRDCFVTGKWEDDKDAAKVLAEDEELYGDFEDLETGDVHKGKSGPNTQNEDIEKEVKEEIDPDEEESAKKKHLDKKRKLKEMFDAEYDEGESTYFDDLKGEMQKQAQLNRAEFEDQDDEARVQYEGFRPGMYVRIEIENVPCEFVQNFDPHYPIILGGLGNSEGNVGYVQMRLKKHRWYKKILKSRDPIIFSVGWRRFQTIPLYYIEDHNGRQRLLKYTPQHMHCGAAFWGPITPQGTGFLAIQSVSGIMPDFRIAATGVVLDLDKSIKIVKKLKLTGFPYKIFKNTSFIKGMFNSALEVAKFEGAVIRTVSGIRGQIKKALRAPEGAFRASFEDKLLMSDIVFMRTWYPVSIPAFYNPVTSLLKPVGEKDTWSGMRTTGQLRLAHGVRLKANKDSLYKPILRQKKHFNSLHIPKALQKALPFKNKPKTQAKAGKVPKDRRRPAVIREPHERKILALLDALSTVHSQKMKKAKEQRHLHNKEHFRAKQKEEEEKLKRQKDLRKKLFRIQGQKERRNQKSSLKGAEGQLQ
UniProt Q14161: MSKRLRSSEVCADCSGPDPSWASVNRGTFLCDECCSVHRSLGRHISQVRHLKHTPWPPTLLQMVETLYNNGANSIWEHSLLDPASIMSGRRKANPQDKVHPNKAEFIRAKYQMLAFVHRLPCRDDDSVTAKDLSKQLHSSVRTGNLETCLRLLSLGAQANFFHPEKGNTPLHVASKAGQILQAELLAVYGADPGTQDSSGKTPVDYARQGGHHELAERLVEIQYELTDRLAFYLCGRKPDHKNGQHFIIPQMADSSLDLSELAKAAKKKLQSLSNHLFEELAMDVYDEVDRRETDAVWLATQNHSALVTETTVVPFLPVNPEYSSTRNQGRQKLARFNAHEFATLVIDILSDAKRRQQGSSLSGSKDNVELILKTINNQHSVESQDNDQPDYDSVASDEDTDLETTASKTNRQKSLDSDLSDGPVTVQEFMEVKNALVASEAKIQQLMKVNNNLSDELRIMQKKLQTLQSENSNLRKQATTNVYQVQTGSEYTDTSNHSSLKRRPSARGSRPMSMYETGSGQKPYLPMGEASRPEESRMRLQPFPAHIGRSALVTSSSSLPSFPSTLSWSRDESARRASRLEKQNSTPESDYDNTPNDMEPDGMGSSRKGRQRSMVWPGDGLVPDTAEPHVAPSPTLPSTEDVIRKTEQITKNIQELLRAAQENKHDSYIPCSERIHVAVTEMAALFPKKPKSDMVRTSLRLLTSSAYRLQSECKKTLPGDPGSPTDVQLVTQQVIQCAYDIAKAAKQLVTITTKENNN
UniProt Q13216, whole entry: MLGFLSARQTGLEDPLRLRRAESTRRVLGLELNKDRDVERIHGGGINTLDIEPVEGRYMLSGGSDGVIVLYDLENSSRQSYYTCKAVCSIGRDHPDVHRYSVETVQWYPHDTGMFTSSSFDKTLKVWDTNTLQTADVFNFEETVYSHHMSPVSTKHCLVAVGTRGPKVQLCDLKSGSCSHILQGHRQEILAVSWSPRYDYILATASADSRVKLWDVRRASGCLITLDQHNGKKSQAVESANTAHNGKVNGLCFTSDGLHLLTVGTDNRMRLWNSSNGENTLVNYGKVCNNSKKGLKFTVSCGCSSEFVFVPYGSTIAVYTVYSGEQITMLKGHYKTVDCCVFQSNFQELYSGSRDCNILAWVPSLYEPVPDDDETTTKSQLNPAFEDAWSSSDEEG
UniProt Q15025: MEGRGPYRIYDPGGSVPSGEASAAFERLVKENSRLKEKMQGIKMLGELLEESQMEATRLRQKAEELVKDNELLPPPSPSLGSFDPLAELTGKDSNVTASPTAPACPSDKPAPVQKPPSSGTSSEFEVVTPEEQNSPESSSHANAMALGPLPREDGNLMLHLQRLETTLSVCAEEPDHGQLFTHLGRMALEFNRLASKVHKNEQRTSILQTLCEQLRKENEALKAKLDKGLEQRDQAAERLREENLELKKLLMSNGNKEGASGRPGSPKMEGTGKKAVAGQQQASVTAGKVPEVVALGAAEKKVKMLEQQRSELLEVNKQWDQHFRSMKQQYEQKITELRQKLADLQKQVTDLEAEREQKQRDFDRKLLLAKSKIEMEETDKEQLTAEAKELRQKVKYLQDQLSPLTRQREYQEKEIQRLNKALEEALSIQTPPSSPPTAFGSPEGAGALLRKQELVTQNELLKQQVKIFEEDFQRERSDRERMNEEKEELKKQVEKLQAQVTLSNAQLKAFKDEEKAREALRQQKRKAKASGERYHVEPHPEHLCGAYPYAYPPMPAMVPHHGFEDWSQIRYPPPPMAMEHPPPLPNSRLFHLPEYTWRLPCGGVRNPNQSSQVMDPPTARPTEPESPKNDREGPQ
UniProt Q13795: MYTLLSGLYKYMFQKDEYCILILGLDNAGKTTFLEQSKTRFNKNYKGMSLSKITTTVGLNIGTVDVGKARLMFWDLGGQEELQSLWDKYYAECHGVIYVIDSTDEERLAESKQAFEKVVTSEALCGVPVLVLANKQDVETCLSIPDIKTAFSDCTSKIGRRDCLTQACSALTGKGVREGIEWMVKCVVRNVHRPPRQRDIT

Target	NP40-soluble protein abundance
UniProt Q15013 and related entries	0.989 ± 0.011
UniProt Q13308 and related entries	0.978 ± 0.02
CHAF1B (UniProt Q13112)	1.01 ± 0.036
UniProt Q14934 and related entries	0.989 ± 0.029
UniProt Q14498 and related entries	1.01 ± 0.027
PDAP1 (UniProt Q13442)	0.972 ± 0.058
UniProt Q13459 and related entries	1.05 ± 0.043
UniProt Q14687 and related entries	1.03 ± 0.073
ZNF638 (UniProt Q14966)	0.993 ± 0.02
HSPA14 (UniProt Q0VDF9)	1.01 ± 0.059
RAB33A (UniProt Q14088)	0.997 ± 0.03
KRR1 (UniProt Q13601)	1.01 ± 0.033
UniProt Q14197 and related entries	1.06 ± 0.064
PDIA5 (UniProt Q14554)	0.9817 ± 0.0091
SLFN5 (UniProt Q08AF3)	1.09 ± 0.072
UniProt Q14694 and related entries	1.02 ± 0.014
BMS1 (UniProt Q14692)	1.03 ± 0.039
UniProt Q14161 and related entries	1.02 ± 0.03
LCP2 (UniProt Q13094)	0.979 ± 0.013

Target	NP40-soluble protein abundance
UniProt Q14157 and related entries	0.974 ± 0.025
ERCC8 (UniProt Q13216)	1.02 ± 0.015
FAM50A (UniProt Q14320)	0.98 ± 0.043
PPP1R8 (UniProt Q12972)	0.973 ± 0.022
SREBF2 (UniProt Q12772)	1.01 ± 0.018
UniProt Q15025 and related entries	0.9718 ± 0.0088
UniProt Q12872 and related entries	0.994 ± 0.038
GAMT (UniProt Q14353)	1.02 ± 0.019
UniProt Q14558-2|Q14558	0.969 ± 0.048
PPID (UniProt Q08752)	0.9997 ± 0.0078
LASP1 (UniProt Q14847)	1 ± 0.026
UniProt Q14693 and related entries	0.991 ± 0.017
UniProt Q13795 and related entries	0.98 ± 0.036
UniProt Q13045 and related entries	1.04 ± 0.026
UniProt Q15006	1 ± 0.029
GNL2 (UniProt Q13823)	0.992 ± 0.052
UniProt Q14004 and related entries	0.996 ± 0.03
NMI (UniProt Q13287)	0.992 ± 0.021
UniProt Q13131 and related entries	1.03 ± 0.024

Same assay, conditions: concentration: 0.5mM

Target	NP40-soluble protein abundance
UniProt Q15013 and related entries	1.013 ± 0.0039
UniProt Q13308 and related entries	1.02 ± 0.06
CHAF1B (UniProt Q13112)	0.989 ± 0.029
UniProt Q14934 and related entries	0.997 ± 0.046
UniProt Q14498 and related entries	1.02 ± 0.016
PDAP1 (UniProt Q13442)	1.08 ± 0.13
UniProt Q13459 and related entries	1.05 ± 0.046
UniProt Q14687 and related entries	1.02 ± 0.076
ZNF638 (UniProt Q14966)	1.03 ± 0.022
HSPA14 (UniProt Q0VDF9)	0.999 ± 0.046
RAB33A (UniProt Q14088)	0.998 ± 0.038
KRR1 (UniProt Q13601)	1.035 ± 0.003
UniProt Q14197 and related entries	0.993 ± 0.065
PDIA5 (UniProt Q14554)	0.99 ± 0.029
SLFN5 (UniProt Q08AF3)	1.06 ± 0.068
UniProt Q14694 and related entries	1.02 ± 0.053
BMS1 (UniProt Q14692)	1.03 ± 0.034
UniProt Q14161 and related entries	1.01 ± 0.046
LCP2 (UniProt Q13094)	0.997 ± 0.057

Target	NP40-soluble protein abundance
UniProt Q14157 and related entries	1.03 ± 0.072
ERCC8 (UniProt Q13216)	0.99 ± 0.024
FAM50A (UniProt Q14320)	0.995 ± 0.03
PPP1R8 (UniProt Q12972)	1.01 ± 0.022
SREBF2 (UniProt Q12772)	1.02 ± 0.025
UniProt Q15025 and related entries	0.992 ± 0.053
UniProt Q12872 and related entries	1.02 ± 0.018
GAMT (UniProt Q14353)	1.01 ± 0.017
UniProt Q14558-2|Q14558	0.884 ± 0.076
PPID (UniProt Q08752)	0.984 ± 0.014
LASP1 (UniProt Q14847)	1.05 ± 0.047
UniProt Q14693 and related entries	1.01 ± 0.022
UniProt Q13795 and related entries	1 ± 0.051
UniProt Q13045 and related entries	1.02 ± 0.027
UniProt Q15006	0.985 ± 0.049
GNL2 (UniProt Q13823)	1.01 ± 0.046
UniProt Q14004 and related entries	1.04 ± 0.03
NMI (UniProt Q13287)	0.984 ± 0.034
UniProt Q13131 and related entries	1.01 ± 0.011

From the supplement of paper PMC6411743
